Some of the results follow. Small differences around the control level are noise.

Protein sequences, listed by entry. Tags and fused reporters are not part of them. Lines headed by an entry give the natural chain unless they say otherwise; changes in a name come on top.
UniProt Q9BRQ0: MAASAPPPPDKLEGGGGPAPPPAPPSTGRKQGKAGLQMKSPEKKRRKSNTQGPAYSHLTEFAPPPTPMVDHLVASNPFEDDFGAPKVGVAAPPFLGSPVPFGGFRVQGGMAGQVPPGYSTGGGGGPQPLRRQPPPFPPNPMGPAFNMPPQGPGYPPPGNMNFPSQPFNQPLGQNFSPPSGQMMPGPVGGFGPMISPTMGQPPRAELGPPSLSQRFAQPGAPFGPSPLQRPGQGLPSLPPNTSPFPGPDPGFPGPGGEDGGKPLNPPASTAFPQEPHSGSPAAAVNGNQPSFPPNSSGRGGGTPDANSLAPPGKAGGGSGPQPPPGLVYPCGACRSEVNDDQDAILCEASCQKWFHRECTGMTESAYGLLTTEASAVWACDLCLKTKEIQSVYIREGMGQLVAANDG
UniProt Q9BQD3: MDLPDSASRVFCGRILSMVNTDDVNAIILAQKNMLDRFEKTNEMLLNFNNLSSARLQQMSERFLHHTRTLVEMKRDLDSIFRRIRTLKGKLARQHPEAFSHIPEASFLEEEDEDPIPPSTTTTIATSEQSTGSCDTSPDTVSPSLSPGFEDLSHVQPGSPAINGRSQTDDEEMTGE
UniProt Q99543: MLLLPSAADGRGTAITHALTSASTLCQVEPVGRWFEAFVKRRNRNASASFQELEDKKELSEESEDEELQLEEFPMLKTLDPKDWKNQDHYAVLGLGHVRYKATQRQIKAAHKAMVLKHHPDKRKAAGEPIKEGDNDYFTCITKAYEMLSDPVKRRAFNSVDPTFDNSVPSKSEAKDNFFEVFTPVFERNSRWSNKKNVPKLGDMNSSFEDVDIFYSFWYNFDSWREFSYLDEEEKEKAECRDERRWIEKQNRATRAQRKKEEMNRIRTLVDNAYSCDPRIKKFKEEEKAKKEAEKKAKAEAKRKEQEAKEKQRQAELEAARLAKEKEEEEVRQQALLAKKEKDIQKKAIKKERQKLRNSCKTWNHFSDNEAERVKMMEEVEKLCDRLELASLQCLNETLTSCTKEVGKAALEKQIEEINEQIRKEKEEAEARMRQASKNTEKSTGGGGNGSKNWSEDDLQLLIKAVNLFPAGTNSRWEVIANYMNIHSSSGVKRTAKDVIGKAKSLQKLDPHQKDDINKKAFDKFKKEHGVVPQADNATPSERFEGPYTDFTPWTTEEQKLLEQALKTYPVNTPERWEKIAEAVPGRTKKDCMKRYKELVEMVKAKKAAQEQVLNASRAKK
UniProt Q9BS26: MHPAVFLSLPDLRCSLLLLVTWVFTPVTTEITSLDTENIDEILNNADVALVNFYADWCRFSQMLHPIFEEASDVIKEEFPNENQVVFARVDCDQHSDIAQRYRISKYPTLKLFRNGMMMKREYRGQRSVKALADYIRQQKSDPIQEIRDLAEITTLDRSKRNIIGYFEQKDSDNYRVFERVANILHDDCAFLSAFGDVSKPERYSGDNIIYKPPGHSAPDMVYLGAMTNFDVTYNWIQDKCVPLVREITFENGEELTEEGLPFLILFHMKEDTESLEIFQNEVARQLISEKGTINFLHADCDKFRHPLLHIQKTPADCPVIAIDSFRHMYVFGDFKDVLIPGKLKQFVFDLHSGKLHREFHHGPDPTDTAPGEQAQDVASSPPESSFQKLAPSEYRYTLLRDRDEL
UniProt Q99856: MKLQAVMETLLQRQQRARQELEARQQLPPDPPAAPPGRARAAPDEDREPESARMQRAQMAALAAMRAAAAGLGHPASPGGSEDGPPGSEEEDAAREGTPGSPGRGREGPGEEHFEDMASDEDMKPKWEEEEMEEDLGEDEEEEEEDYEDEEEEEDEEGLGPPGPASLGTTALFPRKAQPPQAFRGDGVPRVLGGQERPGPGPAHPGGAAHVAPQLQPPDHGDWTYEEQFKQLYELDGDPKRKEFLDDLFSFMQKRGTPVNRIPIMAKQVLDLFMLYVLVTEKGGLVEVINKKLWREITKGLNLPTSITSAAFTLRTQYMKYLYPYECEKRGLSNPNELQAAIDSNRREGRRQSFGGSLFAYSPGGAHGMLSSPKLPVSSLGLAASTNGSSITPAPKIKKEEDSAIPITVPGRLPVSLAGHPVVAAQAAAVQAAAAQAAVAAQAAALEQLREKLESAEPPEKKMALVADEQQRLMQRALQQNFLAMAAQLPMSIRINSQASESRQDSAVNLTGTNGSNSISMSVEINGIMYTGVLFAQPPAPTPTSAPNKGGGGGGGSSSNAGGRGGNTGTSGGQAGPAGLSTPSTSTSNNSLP
UniProt Q9BUA3: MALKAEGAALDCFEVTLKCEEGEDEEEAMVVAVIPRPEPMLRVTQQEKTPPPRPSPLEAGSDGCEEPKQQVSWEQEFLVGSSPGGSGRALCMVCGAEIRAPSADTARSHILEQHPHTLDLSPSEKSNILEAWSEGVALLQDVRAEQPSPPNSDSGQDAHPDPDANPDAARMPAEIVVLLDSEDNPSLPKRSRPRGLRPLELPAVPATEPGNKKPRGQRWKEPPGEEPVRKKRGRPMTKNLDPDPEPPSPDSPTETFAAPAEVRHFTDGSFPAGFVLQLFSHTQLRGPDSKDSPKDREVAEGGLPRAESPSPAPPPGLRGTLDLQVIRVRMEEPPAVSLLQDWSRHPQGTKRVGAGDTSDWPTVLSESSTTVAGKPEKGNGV
UniProt Q9BTL3: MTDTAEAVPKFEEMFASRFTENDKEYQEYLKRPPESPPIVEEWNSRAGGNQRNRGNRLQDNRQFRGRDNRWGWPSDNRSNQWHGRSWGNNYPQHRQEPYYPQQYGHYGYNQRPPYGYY
UniProt Q9BS16: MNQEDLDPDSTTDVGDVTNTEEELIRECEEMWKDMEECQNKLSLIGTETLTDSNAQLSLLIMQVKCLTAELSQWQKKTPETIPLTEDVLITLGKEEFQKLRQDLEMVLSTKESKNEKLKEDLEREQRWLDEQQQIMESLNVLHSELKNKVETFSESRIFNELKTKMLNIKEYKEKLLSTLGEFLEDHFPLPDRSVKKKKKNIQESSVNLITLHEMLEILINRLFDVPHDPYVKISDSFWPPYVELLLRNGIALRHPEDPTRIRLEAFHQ
UniProt Q9BQQ3: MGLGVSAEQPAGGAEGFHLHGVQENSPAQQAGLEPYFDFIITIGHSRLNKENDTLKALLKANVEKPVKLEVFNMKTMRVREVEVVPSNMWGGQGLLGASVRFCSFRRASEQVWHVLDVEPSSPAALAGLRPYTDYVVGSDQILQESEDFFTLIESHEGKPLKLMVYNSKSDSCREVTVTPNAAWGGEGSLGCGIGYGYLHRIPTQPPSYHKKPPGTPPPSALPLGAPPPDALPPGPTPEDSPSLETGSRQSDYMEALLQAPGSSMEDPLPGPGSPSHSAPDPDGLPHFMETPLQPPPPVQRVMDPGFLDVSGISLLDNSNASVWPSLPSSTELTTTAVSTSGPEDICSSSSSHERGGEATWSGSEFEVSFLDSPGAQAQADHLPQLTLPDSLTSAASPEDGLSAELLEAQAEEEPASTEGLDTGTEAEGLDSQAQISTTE
UniProt Q9BQ52: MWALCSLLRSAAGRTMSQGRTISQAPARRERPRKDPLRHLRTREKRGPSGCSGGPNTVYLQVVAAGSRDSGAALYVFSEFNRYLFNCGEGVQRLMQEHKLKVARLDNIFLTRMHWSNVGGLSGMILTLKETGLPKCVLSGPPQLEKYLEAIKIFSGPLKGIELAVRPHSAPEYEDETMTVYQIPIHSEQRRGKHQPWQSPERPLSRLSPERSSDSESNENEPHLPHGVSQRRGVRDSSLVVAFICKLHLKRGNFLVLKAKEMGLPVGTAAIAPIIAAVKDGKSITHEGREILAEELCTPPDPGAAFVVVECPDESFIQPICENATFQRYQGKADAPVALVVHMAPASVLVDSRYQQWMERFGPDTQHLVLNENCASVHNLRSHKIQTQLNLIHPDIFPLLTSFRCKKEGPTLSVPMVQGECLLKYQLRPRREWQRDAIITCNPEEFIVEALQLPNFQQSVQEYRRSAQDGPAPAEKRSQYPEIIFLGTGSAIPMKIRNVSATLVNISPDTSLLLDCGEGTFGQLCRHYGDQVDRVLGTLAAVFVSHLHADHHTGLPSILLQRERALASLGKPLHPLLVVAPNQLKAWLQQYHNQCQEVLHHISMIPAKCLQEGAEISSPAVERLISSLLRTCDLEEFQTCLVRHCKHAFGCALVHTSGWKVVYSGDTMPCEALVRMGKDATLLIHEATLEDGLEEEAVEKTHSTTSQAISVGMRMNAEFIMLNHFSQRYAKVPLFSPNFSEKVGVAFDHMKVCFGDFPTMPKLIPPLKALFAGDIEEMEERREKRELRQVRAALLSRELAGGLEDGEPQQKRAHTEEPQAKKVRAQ
UniProt Q9BQA5: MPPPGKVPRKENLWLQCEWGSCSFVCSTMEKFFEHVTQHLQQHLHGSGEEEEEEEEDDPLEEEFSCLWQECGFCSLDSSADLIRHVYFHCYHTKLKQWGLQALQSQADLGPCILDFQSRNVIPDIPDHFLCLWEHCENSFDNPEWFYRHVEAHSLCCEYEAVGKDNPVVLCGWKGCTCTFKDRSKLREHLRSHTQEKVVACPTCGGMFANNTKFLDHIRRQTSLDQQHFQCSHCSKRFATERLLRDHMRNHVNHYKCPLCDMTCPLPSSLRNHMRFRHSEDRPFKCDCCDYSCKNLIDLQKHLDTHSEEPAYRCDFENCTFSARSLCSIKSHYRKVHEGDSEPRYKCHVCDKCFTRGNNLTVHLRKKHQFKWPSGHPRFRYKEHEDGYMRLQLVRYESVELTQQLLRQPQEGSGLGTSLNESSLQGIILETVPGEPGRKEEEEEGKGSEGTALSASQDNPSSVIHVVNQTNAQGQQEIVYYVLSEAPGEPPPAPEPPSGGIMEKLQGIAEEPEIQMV
UniProt Q99967: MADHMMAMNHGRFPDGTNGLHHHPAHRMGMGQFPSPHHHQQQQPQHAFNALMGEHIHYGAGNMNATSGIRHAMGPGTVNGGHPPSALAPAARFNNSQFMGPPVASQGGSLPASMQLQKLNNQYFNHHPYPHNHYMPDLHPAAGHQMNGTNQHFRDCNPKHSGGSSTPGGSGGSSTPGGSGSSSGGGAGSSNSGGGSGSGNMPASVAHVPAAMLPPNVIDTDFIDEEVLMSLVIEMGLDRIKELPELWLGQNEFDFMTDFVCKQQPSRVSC
UniProt Q9BRQ3: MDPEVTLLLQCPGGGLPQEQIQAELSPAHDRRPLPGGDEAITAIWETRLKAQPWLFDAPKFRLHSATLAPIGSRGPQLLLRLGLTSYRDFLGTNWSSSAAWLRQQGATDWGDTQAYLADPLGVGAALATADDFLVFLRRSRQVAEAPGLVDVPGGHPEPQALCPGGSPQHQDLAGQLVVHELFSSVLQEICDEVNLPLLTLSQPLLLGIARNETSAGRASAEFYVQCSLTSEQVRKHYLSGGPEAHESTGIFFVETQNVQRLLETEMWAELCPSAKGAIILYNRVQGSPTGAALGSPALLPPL
UniProt Q9BRV8: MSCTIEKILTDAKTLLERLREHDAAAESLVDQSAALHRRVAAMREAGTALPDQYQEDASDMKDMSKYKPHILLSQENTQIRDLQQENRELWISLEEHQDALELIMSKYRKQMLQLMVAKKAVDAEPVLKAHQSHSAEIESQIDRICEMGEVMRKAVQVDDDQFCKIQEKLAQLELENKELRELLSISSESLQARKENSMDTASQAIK
UniProt Q99504: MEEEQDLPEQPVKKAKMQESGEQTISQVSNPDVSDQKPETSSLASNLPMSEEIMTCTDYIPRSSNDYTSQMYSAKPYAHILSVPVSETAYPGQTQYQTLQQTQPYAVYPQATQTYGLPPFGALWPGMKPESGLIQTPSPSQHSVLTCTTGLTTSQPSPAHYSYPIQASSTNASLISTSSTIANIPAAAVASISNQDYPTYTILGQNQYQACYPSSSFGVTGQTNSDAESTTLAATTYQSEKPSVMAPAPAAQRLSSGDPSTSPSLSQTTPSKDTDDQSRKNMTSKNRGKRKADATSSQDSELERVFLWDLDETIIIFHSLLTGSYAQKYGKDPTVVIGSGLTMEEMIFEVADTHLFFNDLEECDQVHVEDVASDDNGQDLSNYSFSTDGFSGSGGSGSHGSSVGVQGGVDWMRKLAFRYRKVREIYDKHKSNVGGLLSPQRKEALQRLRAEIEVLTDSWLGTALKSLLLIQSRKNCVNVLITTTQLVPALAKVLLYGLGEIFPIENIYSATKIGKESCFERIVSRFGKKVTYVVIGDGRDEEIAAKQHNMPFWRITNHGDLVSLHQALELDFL
UniProt Q99436: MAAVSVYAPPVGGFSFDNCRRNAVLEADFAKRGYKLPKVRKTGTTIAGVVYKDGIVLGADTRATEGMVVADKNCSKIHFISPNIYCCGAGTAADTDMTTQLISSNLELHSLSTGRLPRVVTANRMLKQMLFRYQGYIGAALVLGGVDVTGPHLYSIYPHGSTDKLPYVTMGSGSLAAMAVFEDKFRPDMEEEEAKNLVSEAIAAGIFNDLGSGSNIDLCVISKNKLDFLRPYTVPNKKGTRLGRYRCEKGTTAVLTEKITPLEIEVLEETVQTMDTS

Compound in the assay: Cc1nc(Nc2ncc(C(=O)Nc3c(C)cccc3Cl)s2)cc(N2CCN(CCO)CC2)n1 [dasatinib]
Description: log2 fold change of tryptic peptide abundance, ligand vs vehicle (limited proteolysis) (log2 ratio); higher = more trypsin-susceptible (destabilized). As to conditions: ligand concentration: 5 uM; sample: K562 cleared lysate.

In the case of “PYGO2 (peptide sequence: KQGKAGLQMK, peptide start residue: 30) (UniProt Q9BRQ0)”, the log2 fold change turned out to be 0.0529. The same measure for “KXD1 (peptide sequence: DLDSIFRR, peptide start residue: 76) (UniProt Q9BQD3)”: -0.0308; for “EIF3C (peptide sequence: QPLLGPPESMREHVVAASK, peptide start residue: 724) (UniProt Q99613)”: 0.258. Under “TTPAL (peptide sequence: ALQLLVNYHSCR, peptide start residue: 95) (UniProt Q9BTX7)” stands 0.267. Under “UniProt Q9BTK6 (peptide sequence: LEEQILR, peptide start residue: 214)” stands -0.127; under “DNAJC2 (peptide sequence: KKEEMNR, peptide start residue: 259) (UniProt Q99543)”, 0.172. For “UniProt Q9BS26 (peptide sequence: HMYVFGDFKDVLIPGKLK, peptide start residue: 328)”, the log2 fold change was found to be 0.227.

As to “ARID3A (peptide sequence: LESAEPPEK, peptide start residue: 453) (UniProt Q99856)”, the log2 fold change was -0.48. Under “NCAPG (peptide sequence: TMDDKTVFHEEFIHYLK, peptide start residue: 37) (UniProt Q9BPX3)” stands -0.217; under “UniProt Q9BUA3 (peptide sequence: WKEPPGEEPVR, peptide start residue: 219)”, -0.487.

Regarding “HDHD3 (peptide sequence: LLTWDVKDTLLR, peptide start residue: 9) (UniProt Q9BSH5)”, the log2 fold change is 0.304. As for “UniProt Q9BTL3 (peptide sequence: FEEMFASR, peptide start residue: 11)”, the log2 fold change is -0.141. The same measure for “CENPK (peptide sequence: LKEDLER, peptide start residue: 118) (UniProt Q9BS16)”: -0.067. Under “PRPF18 (peptide sequence: KIEILTPEVNK, peptide start residue: 111) (UniProt Q99633)” stands -0.581; under “GORASP1 (peptide sequence: ANVEKPVKLEVFNMK, peptide start residue: 61) (UniProt Q9BQQ3)”, 0.357; under “ELAC2 (peptide sequence: LDNIFLTR, peptide start residue: 105) (UniProt Q9BQ52)”, -0.201. Turning to “NEU1 (peptide sequence: DGVFCLLSDDHGASWR, peptide start residue: 226) (UniProt Q99519)”, the log2 fold change was determined as 0.21. As for “HINFP (peptide sequence: YKEHEDGYMR, peptide start residue: 381) (UniProt Q9BQA5)”, the log2 fold change came out at 0.0815. Consider “CITED2 (peptide sequence: FPDGTNGLHHHPAHR, peptide start residue: 13) (UniProt Q99967)”, for which the log2 fold change is -0.215.

On to “SECISBP2 (peptide sequence: HRNENTCPLPQEMK, peptide start residue: 127) (UniProt Q96T21)”, for which the log2 fold change was 0.315. The same measure for “UniProt Q9BSJ8 (peptide sequence: GSNPHLQTFTFTR, peptide start residue: 171)”: -0.594; for “UniProt Q9BQ87 (peptide sequence: YLASGSFDK, peptide start residue: 456)”: -0.188; for “NUDT22 (peptide sequence: AQPWLFDAPK, peptide start residue: 51) (UniProt Q9BRQ3)”: -0.181. The same measure for “LZTS2 (peptide sequence: GVPTGPSHSDSGR, peptide start residue: 263) (UniProt Q9BRK4)”: -0.324; for “SIKE1 (peptide sequence: ENSMDTASQAIK, peptide start residue: 196) (UniProt Q9BRV8)”: 0.479. The same measure for “MTA3 (peptide sequence: QYESLPATHIR, peptide start residue: 96) (UniProt Q9BTC8)”: -0.169. Turning to “EYA3 (peptide sequence: KVTYVVIGDGRDEEIAAK, peptide start residue: 529) (UniProt Q99504)”, the log2 fold change turned out to be 0.148. Under “PSMB7 (peptide sequence: CEKGTTAVLTEK, peptide start residue: 247) (UniProt Q99436)” stands -1.26.

For the origin of these results see the supplement of paper PMC12819154, “High-throughput peptide-centric local stability assay extends protein–ligand identification to membrane proteins, tissues and bacteria” (Nature Structural & Molecular Biology, 2025).
